Data taken from publication doi:10.1101/2023.07.11.548643.
Results are given in words; binding and its absence hold for the method and conditions named. Binding seen in cells or lysates may run through a third protein. Here binding means that the protein was enriched with, or labelled near, the bait; the list need not be complete.

Protein sequences, listed by entry. Tags and fused reporters are not part of them.
UniProt P04198: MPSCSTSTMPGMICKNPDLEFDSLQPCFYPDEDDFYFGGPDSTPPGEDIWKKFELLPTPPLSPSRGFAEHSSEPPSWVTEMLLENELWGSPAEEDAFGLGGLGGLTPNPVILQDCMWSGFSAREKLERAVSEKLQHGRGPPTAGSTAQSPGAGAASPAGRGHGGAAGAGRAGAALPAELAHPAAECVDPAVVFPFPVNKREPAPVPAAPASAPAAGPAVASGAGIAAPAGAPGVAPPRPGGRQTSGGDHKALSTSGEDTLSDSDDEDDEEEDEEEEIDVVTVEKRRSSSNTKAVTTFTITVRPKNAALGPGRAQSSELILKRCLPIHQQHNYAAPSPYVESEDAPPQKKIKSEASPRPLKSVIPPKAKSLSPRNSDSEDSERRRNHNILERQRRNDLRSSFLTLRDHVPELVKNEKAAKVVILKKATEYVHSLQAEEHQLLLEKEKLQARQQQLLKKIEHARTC
UniProt Q96KQ7: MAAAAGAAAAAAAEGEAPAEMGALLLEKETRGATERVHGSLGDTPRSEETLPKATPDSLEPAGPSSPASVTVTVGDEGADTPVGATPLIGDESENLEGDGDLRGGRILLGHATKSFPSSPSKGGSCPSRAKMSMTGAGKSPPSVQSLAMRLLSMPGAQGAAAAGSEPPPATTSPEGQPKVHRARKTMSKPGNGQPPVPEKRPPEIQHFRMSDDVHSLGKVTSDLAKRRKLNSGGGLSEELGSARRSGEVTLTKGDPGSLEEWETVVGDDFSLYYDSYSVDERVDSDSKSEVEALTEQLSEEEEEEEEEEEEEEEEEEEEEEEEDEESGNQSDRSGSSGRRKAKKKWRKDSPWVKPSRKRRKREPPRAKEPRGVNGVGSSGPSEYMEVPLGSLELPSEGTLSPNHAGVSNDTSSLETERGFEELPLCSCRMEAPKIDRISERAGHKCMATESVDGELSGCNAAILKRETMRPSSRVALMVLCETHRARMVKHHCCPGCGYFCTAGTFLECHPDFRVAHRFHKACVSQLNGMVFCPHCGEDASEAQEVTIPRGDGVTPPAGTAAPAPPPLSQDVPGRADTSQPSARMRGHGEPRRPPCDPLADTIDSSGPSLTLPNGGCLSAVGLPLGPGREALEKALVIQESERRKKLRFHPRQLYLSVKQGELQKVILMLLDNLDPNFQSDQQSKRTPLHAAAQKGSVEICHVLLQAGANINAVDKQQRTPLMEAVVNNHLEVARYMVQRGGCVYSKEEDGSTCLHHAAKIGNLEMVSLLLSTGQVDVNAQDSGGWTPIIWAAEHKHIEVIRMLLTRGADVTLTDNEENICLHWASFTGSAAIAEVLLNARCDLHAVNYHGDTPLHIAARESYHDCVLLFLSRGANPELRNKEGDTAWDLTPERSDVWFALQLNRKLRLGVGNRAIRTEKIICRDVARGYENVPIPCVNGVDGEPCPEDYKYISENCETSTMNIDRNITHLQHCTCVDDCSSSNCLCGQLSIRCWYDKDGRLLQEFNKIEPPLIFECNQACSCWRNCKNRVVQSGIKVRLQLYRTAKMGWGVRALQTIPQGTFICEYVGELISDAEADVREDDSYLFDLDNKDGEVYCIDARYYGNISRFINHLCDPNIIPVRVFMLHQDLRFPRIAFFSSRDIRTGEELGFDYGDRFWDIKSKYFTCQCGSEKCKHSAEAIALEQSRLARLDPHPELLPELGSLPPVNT
UniProt P61244: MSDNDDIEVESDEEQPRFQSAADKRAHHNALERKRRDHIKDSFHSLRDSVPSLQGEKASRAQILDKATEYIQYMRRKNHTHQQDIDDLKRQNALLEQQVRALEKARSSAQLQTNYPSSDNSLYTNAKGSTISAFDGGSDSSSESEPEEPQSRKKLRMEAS
UniProt Q9Y4A5: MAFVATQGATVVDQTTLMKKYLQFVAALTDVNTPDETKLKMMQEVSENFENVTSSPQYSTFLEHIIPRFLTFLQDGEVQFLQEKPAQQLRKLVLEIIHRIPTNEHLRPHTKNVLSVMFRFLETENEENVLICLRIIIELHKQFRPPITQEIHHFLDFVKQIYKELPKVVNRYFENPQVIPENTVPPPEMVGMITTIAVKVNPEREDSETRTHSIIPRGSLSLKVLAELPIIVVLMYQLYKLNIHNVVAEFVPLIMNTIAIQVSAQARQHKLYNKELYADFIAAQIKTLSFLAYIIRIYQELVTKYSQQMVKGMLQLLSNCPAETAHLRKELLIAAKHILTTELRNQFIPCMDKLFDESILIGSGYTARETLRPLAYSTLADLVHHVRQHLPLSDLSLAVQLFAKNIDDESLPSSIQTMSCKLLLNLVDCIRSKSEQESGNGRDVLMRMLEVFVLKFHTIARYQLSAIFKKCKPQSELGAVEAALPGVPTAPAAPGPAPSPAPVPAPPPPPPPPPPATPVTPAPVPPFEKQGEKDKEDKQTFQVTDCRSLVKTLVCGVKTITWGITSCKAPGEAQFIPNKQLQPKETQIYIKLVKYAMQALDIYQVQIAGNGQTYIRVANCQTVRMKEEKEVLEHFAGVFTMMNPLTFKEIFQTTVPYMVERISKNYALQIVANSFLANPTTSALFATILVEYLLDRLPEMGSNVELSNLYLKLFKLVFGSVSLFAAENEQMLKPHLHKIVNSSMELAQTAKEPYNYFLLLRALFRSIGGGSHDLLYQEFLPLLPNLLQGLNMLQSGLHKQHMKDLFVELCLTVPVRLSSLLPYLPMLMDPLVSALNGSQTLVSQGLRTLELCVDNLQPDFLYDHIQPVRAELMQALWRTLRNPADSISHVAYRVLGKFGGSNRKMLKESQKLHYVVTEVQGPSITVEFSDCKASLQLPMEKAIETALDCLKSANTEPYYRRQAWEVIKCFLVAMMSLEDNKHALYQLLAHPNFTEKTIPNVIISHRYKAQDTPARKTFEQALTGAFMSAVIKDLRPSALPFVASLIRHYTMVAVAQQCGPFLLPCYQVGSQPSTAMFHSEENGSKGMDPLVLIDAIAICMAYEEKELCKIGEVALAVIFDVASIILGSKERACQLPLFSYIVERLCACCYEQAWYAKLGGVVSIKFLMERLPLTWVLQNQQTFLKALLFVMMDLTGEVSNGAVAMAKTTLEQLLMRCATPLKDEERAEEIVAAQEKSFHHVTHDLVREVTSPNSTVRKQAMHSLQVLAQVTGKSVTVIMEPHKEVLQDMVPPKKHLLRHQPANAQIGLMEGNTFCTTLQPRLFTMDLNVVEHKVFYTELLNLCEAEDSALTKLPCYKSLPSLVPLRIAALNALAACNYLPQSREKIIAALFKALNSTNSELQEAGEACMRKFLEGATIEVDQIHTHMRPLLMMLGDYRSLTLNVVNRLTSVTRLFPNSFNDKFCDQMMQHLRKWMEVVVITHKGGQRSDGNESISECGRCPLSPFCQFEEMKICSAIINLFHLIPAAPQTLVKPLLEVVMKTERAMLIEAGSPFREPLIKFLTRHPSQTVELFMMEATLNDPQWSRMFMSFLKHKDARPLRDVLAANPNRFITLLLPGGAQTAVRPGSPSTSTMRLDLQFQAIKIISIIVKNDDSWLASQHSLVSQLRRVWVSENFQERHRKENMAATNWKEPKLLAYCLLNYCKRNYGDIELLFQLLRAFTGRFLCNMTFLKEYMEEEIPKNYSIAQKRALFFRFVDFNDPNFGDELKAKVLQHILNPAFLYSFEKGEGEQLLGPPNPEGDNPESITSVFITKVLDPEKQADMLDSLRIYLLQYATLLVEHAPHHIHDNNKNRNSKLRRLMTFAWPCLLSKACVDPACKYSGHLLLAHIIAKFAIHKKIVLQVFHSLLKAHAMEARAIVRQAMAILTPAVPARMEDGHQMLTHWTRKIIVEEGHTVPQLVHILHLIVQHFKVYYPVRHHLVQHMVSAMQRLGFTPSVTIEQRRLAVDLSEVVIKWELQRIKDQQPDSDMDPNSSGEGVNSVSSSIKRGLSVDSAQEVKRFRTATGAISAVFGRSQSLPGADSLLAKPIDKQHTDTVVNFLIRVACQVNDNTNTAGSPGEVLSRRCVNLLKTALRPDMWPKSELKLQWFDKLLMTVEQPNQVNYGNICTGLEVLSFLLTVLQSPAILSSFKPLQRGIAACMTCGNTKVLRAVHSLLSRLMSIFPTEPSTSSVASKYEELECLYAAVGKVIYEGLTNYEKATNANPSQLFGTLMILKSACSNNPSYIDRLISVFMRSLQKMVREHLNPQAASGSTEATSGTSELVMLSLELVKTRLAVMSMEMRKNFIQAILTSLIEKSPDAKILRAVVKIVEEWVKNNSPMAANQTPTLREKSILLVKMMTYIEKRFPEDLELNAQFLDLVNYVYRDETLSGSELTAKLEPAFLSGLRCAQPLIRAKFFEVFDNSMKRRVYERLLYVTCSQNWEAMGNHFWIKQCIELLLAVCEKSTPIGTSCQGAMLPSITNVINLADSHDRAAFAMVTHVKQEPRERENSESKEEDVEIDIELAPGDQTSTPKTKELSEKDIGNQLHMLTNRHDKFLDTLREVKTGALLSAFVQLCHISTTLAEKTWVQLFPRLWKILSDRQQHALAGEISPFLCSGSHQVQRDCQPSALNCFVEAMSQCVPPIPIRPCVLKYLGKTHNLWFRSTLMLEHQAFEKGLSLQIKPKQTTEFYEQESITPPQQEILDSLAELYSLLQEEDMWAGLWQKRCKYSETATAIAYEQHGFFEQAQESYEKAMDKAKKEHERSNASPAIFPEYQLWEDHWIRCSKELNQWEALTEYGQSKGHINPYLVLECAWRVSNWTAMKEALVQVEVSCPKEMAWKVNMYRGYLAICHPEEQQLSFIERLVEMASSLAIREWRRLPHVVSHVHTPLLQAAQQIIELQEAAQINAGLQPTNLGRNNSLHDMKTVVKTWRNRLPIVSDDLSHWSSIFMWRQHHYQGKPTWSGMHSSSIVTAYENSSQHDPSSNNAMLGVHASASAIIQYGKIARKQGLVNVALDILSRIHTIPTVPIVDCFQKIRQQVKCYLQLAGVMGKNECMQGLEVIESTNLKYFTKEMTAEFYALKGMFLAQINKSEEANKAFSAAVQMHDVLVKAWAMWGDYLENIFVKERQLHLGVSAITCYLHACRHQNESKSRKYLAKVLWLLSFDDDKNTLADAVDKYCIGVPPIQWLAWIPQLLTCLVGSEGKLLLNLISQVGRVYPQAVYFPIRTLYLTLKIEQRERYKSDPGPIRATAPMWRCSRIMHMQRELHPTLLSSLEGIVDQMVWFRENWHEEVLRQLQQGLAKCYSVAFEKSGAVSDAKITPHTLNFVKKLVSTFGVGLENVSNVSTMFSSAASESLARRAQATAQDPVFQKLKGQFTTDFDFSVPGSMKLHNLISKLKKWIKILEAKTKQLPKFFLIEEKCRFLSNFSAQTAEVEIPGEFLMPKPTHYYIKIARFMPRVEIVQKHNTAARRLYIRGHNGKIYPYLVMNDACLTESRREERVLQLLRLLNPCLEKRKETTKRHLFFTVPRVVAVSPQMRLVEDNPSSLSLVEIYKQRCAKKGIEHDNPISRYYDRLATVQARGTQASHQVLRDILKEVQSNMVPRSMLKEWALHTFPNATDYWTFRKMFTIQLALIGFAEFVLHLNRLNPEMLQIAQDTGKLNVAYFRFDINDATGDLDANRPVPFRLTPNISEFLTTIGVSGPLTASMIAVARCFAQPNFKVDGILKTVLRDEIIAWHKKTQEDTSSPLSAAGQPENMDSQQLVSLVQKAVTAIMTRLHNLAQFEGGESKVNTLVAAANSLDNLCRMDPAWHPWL

Target: MYCN (human (endogenous in IMR32)) (UniProt P04198)
Assay: affinity purification with mass spectrometry; endogenous MYCN precipitated from IMR32 lysate (20 mg; 50 mM pH 7.5 Tris-HCl, 137 mM NaCl, 1 mM DTT, 1 mM EDTA, 0.5% Triton X-100) with two different MYCN antibodies or normal IgG on Dynabeads M-280 sheep anti-mouse IgG, 4°C, 4 h; differentially pulled-down gel bands sequenced by mass spectrometry; no Benzonase added

binding | Substance
binds | G9a (from UniProt Q96KQ7 1-1210)
binds | MAX (from UniProt P61244 1-160)
binds | TRRAP (from UniProt Q9Y4A5 1-3859)
binds | topoisomerase IIB (from UniProt Q02880 1-1626)
